Data from US20210085770A1.
These are yes or no findings as the source states them, for the method shown. Some binding calls cover weakened binding; strength is not graded here.

By UniProt entry, the sequences of proteins in these tests, tags left out. Residues count along the entry.
UniProt P02769, residues 25-607: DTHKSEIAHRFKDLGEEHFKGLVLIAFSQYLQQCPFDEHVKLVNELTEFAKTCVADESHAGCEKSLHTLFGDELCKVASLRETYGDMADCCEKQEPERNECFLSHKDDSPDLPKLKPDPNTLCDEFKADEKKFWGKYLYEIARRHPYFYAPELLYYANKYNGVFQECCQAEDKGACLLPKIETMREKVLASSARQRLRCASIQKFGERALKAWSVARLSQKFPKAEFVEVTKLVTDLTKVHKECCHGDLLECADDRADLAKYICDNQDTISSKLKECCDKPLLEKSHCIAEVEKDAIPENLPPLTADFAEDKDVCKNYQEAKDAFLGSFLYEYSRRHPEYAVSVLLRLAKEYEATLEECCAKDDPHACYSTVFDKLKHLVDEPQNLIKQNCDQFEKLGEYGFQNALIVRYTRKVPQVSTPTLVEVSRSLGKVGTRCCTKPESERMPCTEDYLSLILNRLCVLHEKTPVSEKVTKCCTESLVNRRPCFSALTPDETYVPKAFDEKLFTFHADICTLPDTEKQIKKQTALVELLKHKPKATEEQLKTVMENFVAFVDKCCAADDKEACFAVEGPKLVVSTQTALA
UniProt P02872, residues 24-259: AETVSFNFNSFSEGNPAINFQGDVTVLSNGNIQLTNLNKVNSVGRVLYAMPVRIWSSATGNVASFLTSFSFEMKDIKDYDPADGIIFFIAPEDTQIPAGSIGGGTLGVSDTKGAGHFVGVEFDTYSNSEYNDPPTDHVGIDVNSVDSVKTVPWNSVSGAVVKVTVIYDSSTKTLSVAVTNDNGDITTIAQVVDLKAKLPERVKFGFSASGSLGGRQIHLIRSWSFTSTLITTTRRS

What was measured:
[1] = biological target: BSA-TF conjugate (bovine serum albumin carrying TF antigen through the thio-linker on amine groups) (bovine) (UniProt P02769); assay: Western blot and ELISA with lectin PNA
[2] = biological target: BSA-TF conjugate (bovine serum albumin carrying TF antigen through the thio-linker on amine groups) (bovine) (UniProt P02769); assay: Western blot and ELISA with PNA-hrp

Peanut Agglutinin (PNA), lectin from Arachis hypogaea (from UniProt P02872 24-259)
binding [1]: binds
binding [2]: binds
